Common to all, as to test: odorant receptor activation (CRE luciferase / Renilla) (fold of no-odor wells); higher = more activation
Holding throughout (details): 100 µM

Chains of the proteins cited; added tags and fusions are not shown. Chains listed by the source or under a name are the forms on record and can include a tag or linker.
OR4F14 A297T, as listed by the source, stated change not applied: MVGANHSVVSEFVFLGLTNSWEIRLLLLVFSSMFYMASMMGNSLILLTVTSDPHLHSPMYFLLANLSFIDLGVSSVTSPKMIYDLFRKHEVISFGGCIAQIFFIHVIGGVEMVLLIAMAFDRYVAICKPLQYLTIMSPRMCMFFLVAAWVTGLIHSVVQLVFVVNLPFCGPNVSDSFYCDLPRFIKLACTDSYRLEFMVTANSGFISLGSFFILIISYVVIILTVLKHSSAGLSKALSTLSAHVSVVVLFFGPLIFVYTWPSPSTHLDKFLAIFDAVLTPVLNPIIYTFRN

Experiment [1] deals with OR4B1 clone 1189.
In experiment [2] the test system is OR4C11 clone 1244.
Experiment [3] deals with OR4C12 V283L clone 1155.
The test system of experiment [4] is OR4C15 clone 1337.
Experiment [5] deals with OR4C15 clone 1449.
Experiment [6] deals with OR4C16 V25L/T76A/L259P clone 1237.
Experiment [7] has as its system OR4C3 clone 1284.
The test system of experiment [8] is OR4C3 clone 1480.
Experiment [9] deals with OR4C46 K288R clone 1483.
Experiment [10] deals with OR4C5 clone 1307.
The test system of experiment [11] is OR4D1 R54Q clone 1467.
Experiment [12] has as its system OR4D1 clone 1316.
Experiment [13] has as its system OR4D10 clone 1174.
The test system of experiment [14] is OR4D11 clone 1243.
The subject of experiment [15] is OR4D2 C97S/L187F clone 1285.
In experiment [16] the test system is OR4D5 clone 1122.
For experiment [17], the system named is OR4D6 D96G clone 1225.
Experiment [18] concerns OR4D9 clone 1217.
Experiment [19] has as its system OR4E2 V118M/Q234R clone 1274.
The subject of experiment [20] is OR4F14 A297T clone 1059.

Several values for one entry are separate records, joined by “and”; a condition that tells them apart may be missing. Equal values may be shown once. This is one part of the list. Each value is one well over the wells without odorant, computed here; the data are noisy.

Consider `CCCCCCCCCCC=O` [undecanal], for which the odorant receptor activation in experiment [1] came to 0.697; in experiment [2] it was 1.06; in experiment [3], 0.885; in [4], 0.87; in experiment [5] it was 1.16; in [6] it was 0.962. Besides, the odorant receptor activation was 0.956 in experiment [7]; 1.14 in [8]; 1.1 in [9]; 1.11 in experiment [10]; 1.02 in experiment [11]; 0.849 in [12]. Further, the odorant receptor activation in experiment [13] was 0.611; in experiment [14], 0.933; in experiment [15], 0.807; in experiment [16], 0.957; in [17], 1.08; in [18] it was 1.08. In addition, the results for the odorant receptor activation in experiment [19] and in [20] were 1.06 and 0.987, respectively.

Regarding `CC(=O)OC(C)(C)C1CC=C(C)CC1` (stereo not drawn) [terpinyl acetate], the odorant receptor activation in experiment [1] was 0.838; in experiment [2], 0.968; in experiment [3] it was 0.898; in [4], 0.736; in [5], 1.02; in experiment [6] it was 0.797. Moreover, the odorant receptor activation in experiment [7] turned out to be 1.01; in experiment [8], 1.05; in [9], 0.855; in experiment [10] it was 1.02; in experiment [11], 0.88; in experiment [12] it was 0.829. The odorant receptor activation worked out at 1.24 in experiment [13]; 0.894 in [14]; 0.709 in experiment [15]; 1 in experiment [16]; 1.63 in experiment [17]; 1.79 in experiment [18]. Besides, the odorant receptor activation in experiment [19] was determined as 0.912; in experiment [20], 1.42.

For `CC(=O)OCC=C(C)CCC=C(C)C` [geranyl acetate], the odorant receptor activation in experiment [1] is 0.802; in experiment [2], 0.984 and 1.43; in experiment [3] it was 1.63; in [4], 1.4 and 0.921; in experiment [5], 1.28; in experiment [6], 2.33. Moreover, the odorant receptor activation was 0.654 and 1.12 in [7]; 0.881 and 1.63 in experiment [8]; 0.856 and 1.32 in experiment [9]; 1.2 and 1.07 in experiment [10]; 0.917 and 1.35 in experiment [11]; 1.21 and 1.06 in experiment [12]. Moreover, the odorant receptor activation in experiment [13] was 0.832; in experiment [14] it was 1.03 and 1.16; in experiment [15] it was 0.87 and 1.03; in experiment [16] it was 2.69; in [17], 1.01; in experiment [18], 1.36. The odorant receptor activation in experiment [19] is 1.77 and 1.28; in experiment [20], 1.45.

With `CC12CCC(CC1)C(C)(C)O2` [cineole], the odorant receptor activation amounted to 0.849 in [1]; 1.09 in [2]; 0.834 in experiment [3]; 0.878 in experiment [4]; 0.17 in [5]; 0.772 in [6]. In addition, the odorant receptor activation came out at 1.09 in [7]; 0.711 in experiment [8]; 0.832 in [9]; 0.975 in experiment [10]; 0.943 in [11]; 0.967 in experiment [12]. Further, the odorant receptor activation stood at 0.941 in experiment [13]; 0.981 in experiment [14]; 0.988 in experiment [15]; 1.11 in experiment [16]; 0.64 in experiment [17]; 0.834 in experiment [18]. Moreover, the odorant receptor activation in experiment [19] is 1.38; in experiment [20] it was 0.803.

As to `CC12C=CCC1C1CCC3CC(=O)CCC3(C)C1CC2` (stereo not drawn) [androstenone], the odorant receptor activation in experiment [1] came out at 5.44; in experiment [2] it was 1.28; in experiment [3], 7.03; in experiment [4], 1.19; in [5] it was 0.765; in experiment [7], 1.31. Also, the odorant receptor activation came out at 0.844 in experiment [8]; 1.1 in [9]; 1.39 in experiment [10]; 1.01 in experiment [11]; 1.26 in experiment [12]; 4.5 in experiment [13]. Moreover, the odorant receptor activation in experiment [14] amounted to 1.31; in experiment [15] it was 1.16; in experiment [17] it was 3.32; in [18], 5.78; in experiment [19] it was 1.29; in [20], 1.85.

As for `CC(C)(O)CCCC1=CCC(C=O)CC1` (stereo not drawn) [lyral], the values for the odorant receptor activation in [6] and in experiment [16] were 0.985 and 1.11, respectively.

Regarding `CC(=O)c1ccccc1` [acetophenone], the odorant receptor activation in [1] was 1.03; in [2], 1.96; in experiment [3], 1.17; in experiment [4] it was 1.33; in experiment [5] it was 0.889 and 0.665; in [7], 0.894. For the same compound, the odorant receptor activation is 1 and 0.919 in [8]; 1.1 and 0.691 in experiment [9]; 0.977 in experiment [10]; 0.813 and 0.402 in experiment [11]; 0.987 in [12]; 1.35 in experiment [13]. Moreover, the odorant receptor activation in [14] stood at 0.709; in experiment [15], 1.61; in [17], 0.95; in experiment [18] it was 1.04; in [19] it was 0.784; in [20] it was 1.27.

In the case of `CC(C)C=O` [isobutyraldehyde], the odorant receptor activation in experiment [1] is 0.898; in experiment [2], 0.966 and 0.986; in experiment [3], 1; in experiment [4], 1.14 and 1.09; in [5] it was 0.861; in [6], 0.874. Also, the odorant receptor activation was 0.898 and 0.877 in experiment [7]; 0.968 and 1.34 in [8]; 0.99 and 0.989 in experiment [9]; 1.03 and 0.804 in experiment [10]; 0.996 and 1.13 in experiment [11]; 1.04 and 0.796 in [12]. Also, the odorant receptor activation is 1.17 in experiment [13]; 0.896 and 0.833 in [14]; 0.721 and 1.32 in experiment [15]; 0.772 in experiment [16]; 1.13 in [17]; 1.32 in experiment [18]. Moreover, the odorant receptor activation was 1.15 and 0.681 in [19]; 2.02 in [20].

Source of the values: the odorant receptor screen of Mainland et al. (2015).
